Measured values from US20220175944A1.
Substitutions are numbered along the chain they refer to. Results are given in words; binding and its absence hold for the method and conditions named. Some binding calls cover weakened binding; strength is not graded here.

Chains of the proteins cited; added tags and fusions are not shown. Lines headed by an entry give the natural chain unless they say otherwise; changes in a name come on top. A line that says so, or that is headed by a name, gives the form on record, which may keep a tag or linker.
UniProt P10721: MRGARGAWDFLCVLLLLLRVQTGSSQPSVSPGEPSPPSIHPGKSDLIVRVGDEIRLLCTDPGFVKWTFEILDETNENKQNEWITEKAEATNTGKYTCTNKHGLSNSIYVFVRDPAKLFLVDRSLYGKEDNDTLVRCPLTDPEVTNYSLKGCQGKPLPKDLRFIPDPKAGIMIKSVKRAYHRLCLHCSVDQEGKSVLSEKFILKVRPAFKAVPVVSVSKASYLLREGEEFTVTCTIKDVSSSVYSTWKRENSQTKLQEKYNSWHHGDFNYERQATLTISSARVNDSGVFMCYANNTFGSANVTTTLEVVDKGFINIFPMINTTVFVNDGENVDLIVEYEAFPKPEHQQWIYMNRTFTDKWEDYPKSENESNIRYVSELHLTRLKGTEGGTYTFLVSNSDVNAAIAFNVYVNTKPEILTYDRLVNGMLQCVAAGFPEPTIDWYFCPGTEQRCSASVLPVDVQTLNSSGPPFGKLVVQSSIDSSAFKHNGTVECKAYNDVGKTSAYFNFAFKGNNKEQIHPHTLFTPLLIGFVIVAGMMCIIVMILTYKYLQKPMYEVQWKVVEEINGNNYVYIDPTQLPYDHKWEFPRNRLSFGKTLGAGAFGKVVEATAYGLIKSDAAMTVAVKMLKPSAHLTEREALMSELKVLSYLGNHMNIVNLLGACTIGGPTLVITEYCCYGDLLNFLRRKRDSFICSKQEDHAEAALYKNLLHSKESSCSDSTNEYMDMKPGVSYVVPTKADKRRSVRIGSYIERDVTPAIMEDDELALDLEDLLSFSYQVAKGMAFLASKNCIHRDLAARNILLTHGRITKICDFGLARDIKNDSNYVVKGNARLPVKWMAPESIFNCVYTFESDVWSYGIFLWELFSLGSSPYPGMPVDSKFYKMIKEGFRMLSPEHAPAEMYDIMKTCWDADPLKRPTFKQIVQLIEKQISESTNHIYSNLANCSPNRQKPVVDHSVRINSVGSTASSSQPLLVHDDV
Rhesus CD117 (F6V858, form named): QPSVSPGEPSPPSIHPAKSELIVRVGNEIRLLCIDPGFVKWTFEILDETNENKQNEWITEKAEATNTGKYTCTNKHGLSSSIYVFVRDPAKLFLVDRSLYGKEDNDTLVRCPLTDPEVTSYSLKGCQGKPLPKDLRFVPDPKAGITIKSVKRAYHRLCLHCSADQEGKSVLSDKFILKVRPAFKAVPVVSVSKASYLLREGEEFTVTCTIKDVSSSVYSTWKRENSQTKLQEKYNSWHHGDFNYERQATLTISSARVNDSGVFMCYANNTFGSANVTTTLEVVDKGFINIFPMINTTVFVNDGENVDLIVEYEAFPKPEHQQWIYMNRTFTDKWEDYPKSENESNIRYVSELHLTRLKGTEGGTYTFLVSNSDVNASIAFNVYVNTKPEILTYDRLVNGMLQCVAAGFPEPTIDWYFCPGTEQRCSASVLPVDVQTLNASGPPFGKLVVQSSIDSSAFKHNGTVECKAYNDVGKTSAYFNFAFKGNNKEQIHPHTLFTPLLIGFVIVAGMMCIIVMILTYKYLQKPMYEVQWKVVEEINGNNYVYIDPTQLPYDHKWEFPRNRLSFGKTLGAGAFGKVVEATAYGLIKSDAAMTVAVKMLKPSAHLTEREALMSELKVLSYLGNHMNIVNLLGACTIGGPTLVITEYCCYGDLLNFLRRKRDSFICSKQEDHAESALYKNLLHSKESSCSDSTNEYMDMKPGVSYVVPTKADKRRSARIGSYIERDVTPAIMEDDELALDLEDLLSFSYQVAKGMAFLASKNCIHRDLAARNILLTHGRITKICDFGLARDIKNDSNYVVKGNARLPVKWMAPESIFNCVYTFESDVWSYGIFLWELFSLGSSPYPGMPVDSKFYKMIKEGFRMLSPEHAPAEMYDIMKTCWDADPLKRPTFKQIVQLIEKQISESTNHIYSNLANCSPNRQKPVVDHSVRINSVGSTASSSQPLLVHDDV

Columns and labels:
Assay in all cases: yeast library screen; binding assay not described
[1] = target: Human CD117 isoform 2 (human) (UniProt P10721)
Rhesus CD117 (rhesus) = Rhesus CD117 (rhesus) (UniProt F6V858)
[2] = target: Human CD117 isoform 1 (human) (UniProt P10721)

Measured: binding

B1: Antibody 57 (antibody, V domains shown)
VH: QVQLVQSGAEVKKPGSSVKVSCKASGGTFSLYAISWVRQAPGQGLEWMGGIIPHFGLANYAQKFQGRVTITADESTSTAYMELSSLRSEDTAVYYCARGGLDTDEFDLWGRGTLVTVSS
VL: DIQMTQSPSSLSASVGDRVTITCRASQSINSYLNWYQQKPGKAPKLLIYAASSLQSGVPSRFSGSGSGTDFTLTISSLQPEDFATYYCQQGVSDITFGGGTKVEIKR
binds: all assays above

B2: Antibody 61 (antibody, V domains shown)
VH: EVQLLESGGGLVQPGGSLRLSCAASGFTFSSYVMIWVRQAPGKGLEWVSSISGDSVTTYYADSVKGRFTISRDNSKNTLYLQMNSLRAEDTAVYYCAKGPPTYHTNYYYMDVWGKGTTVTVSS
VL: DIQMTQSPSSVSASVGDRVTITCRASQGISSWLAWYQQKPGKAPKLLIYAASSLQSGVPSRFSGSGSGTDFTLTISSLQPEDFATYYCQQTNSFPYTFGGGTKVEIKR
binds: all assays above

B3: Antibody 55 (antibody, V domains shown)
VH: B1 VH with S30R, L31I, H54D, L57V
VL: B1 VL
binds: all assays above
